The list shows a part of the results. Single values are uncertain, as repeats are few or missing.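 Imaging used 1,536-well plates; nuclei positive for cleaved PARP by antibody were divided by total DNA-stained nuclei to yield the apoptosis fraction. Doses for screening kept most cells viable, and cell lines differ markedly in resting and induced cleaved-PARP levels.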
Test system: WM3619
Test: cleaved PARP positive nuclei fraction relative to DMSO control; melanoma cells; higher = more apoptosis
Settings: library dose: low library concentration; 72 h

Row | Structure (SMILES) | cleaved PARP positive nuclei fraction
1 | N.N.[Cl][Pt][Cl] [cisplatin] + COc1cc2ncnc(Nc3ccc(Oc4ccccc4)cc3)c2cc1OC [SrcI1] (first compound 1.6 µM, partner dose 2 µM) | 95.6%
2 | O=c1[nH]nc(Sc2ncc([N+](=O)[O-])s2)n1-c1ccc2c(c1)OCCO2 + O=C(Oc1ccc([N+](=O)[O-])cc1)N1CCC(C(O)(c2ccc3c(c2)OCO3)c2ccc3c(c2)OCO3)CC1 [JZL184] (first compound 0.2 µM, partner dose 1 µM) | 87%
3 | N.N.[Cl][Pt][Cl] [cisplatin] + O=C(O)c1ccc(-c2c[nH]c3ncc(-c4ccccc4)cc23)cc1C1CCCC1 [GSK650394] (first compound 1.6 µM, partner dose 0.16 µM) | 126%
4 | Cn1cc(C2=C(c3cn(C4CCN(Cc5ccccn5)CC4)c4ccccc34)C(=O)NC2=O)c2ccccc21 [Enzastaurin] + CNC(=O)c1cc(Oc2ccc(NC(=O)Nc3ccc(Cl)c(C(F)(F)F)c3)cc2)ccn1 [sorafenib] (first compound 0.8 µM, partner dose 0.4 µM) | 86.4%
5 | O=c1[nH]nc(Sc2ncc([N+](=O)[O-])s2)n1-c1ccc2c(c1)OCCO2 + C[As](C)SC[C@H](NC(=O)CC[C@H](N)C(=O)O)C(=O)NCC(=O)O [Darinaparsin] (first compound 0.2 µM, partner dose 0.4 µM) | 125%
6 | N#CC[C@H](C1CCCC1)n1cc(-c2ncnc3[nH]ccc23)cn1 [ruxolitinib] + Cn1cc(C2=C(c3cn(C4CCN(Cc5ccccn5)CC4)c4ccccc34)C(=O)NC2=O)c2ccccc21 [Enzastaurin] (first compound 1 µM, partner dose 0.8 µM) | 160%
7 | Cc1cn(-c2cc(NC(=O)c3ccc(C)c(Nc4nccc(-c5cccnc5)n4)c3)cc(C(F)(F)F)c2)cn1 [nilotinib] + C/C(O)=C(\C#N)C(=O)Nc1cc(Br)ccc1Br [LFM-A13] (first compound 0.2 µM, partner dose 2 µM) | 86.3%
8 | C[As](C)SC[C@H](NC(=O)CC[C@H](N)C(=O)O)C(=O)NCC(=O)O [Darinaparsin] + Cc1cc(N2CCOCC2)cc2[nH]c(-c3c(NC[C@@H](O)c4cccc(Cl)c4)cc[nH]c3=O)nc12 [BMS536924] (first compound 0.4 µM, partner dose 0.2 µM) | 101%
9 | N.N.[Cl][Pt][Cl] [cisplatin] + Nc1ccn([C@@H]2O[C@H](CO)[C@@H](O)C2(F)F)c(=O)n1 [gemcitabine] (first compound 1.6 µM, partner dose 0.0004 µM) | 94.7%
10 | CC(C)C[C@H](NC(=O)[C@H](Cc1ccccc1)NC(=O)c1cnccn1)B(O)O [Bortezomib] + O=C(Oc1ccc([N+](=O)[O-])cc1)N1CCC(C(O)(c2ccc3c(c2)OCO3)c2ccc3c(c2)OCO3)CC1 [JZL184] (first compound 0.001 µM, partner dose 1 µM) | 3360%
11 | Cc1cc([N+](=O)[O-])ccc1NS(=O)(=O)c1cc(Cl)ccc1Cl + O=C(Oc1ccc([N+](=O)[O-])cc1)N1CCC(C(O)(c2ccc3c(c2)OCO3)c2ccc3c(c2)OCO3)CC1 [JZL184] (first compound 1 µM, partner dose 1 µM) | 84.2%
12 | C[C@]12O[C@H](C[C@]1(O)CO)n1c3ccccc3c3c4c(c5c6ccccc6n2c5c31)CNC4=O [Lestaurtinib] + NC(=O)Nc1cc(-c2cccc(F)c2)sc1C(=O)N[C@H]1CCCNC1 [AZD7762] (first compound 0.004 µM, partner dose 0.02 µM) | 166%
13 | Cn1cc(C2=C(c3cn(C4CCN(Cc5ccccn5)CC4)c4ccccc34)C(=O)NC2=O)c2ccccc21 [Enzastaurin] + CO[C@H]1C[C@@H]2CC[C@@H](C)[C@@](O)(O2)C(=O)C(=O)N2CCCC[C@H]2C(=O)O[C@H]([C@H](C)C[C@@H]2CC[C@@H](OCCO)[C@H](OC)C2)CC(=O)[C@H](C)/C=C(\C)[C@@H](O)[C@@H](OC)C(=O)[C@H](C)C[C@H](C)/C=C/C=C/C=C/1C [everolimus] (first compound 0.8 µM, partner dose 0.02 µM) | 119%
14 | Cn1cc(C2=C(c3cn(C4CCN(Cc5ccccn5)CC4)c4ccccc34)C(=O)NC2=O)c2ccccc21 [Enzastaurin] + CC(C)(C)c1cnc(CSc2cnc(NC(=O)C3CCNCC3)s2)o1 [SNS-032] (first compound 0.8 µM, partner dose 0.01 µM) | 79.1%

Part of the list above, field by field.
N.N.[Cl][Pt][Cl] [cisplatin] + COc1cc2ncnc(Nc3ccc(Oc4ccccc4)cc3)c2cc1OC [SrcI1] (first compound 1.6 µM, partner dose 2 µM)
  cleaved PARP positive nuclei fraction: 95.6%
CC(C)C[C@H](NC(=O)[C@H](Cc1ccccc1)NC(=O)c1cnccn1)B(O)O [Bortezomib] + O=C(Oc1ccc([N+](=O)[O-])cc1)N1CCC(C(O)(c2ccc3c(c2)OCO3)c2ccc3c(c2)OCO3)CC1 [JZL184] (first compound 0.001 µM, partner dose 1 µM)
  cleaved PARP positive nuclei fraction: 3360%
